The exact form of at least one protein or probe is not confirmed. For some assays here: At least one verdict rests on a figure or table, not on a statement of the authors.

Data set [1] concerns RNA polymerase II (purified, for individual RNA bandshifts) (Homo sapiens). The data set can be described thus: EMSA. The settings on record: 10 mM Mg2+, 10 uM Zn2+; EMSA: 10-100 nM Pol II, 0.2 nM RNA, 10 mM HEPES, 2 mM Tris pH 7.25, 1 mM KCl, 10 mM MgCl2, 10 uM ZnCl2, 10 mM DTT, 5% glycerol, 1 mg/ml BSA, RT 30 min, 4% native gel; native protein; label: 32P body-label (GTP). For orientation: In EMSA bound probe runs differently from free probe, usually more slowly.

In data set [2] the test system is RNA polymerase II (Jena Biosciences) (Homo sapiens). The data set can be described thus: competition filter binding. The settings on record: 0-100 nM B2 partially outcompetes 10 nM labeled cycle 7 RNA pool, 5 nM Pol II; EMSA: 10-100 nM Pol II, 0.2 nM RNA, 10 mM HEPES, 2 mM Tris pH 7.25, 1 mM KCl, 10 mM MgCl2, 10 uM ZnCl2, 10 mM DTT, 5% glycerol, 1 mg/ml BSA, RT 30 min, 4% native gel; commercial protein; label: unlabeled in filter competition.

As for “AUUCGAUGAUUCCAUUCGAUUCCAUUCGCUGAUUCCUUUUGAUUCCAUUCGAUGAUCAUUCCAUUCAAUUCCAUUCAAUGAUUUCAUUUGAUUCCAAUCGAUGAUGAUUCCAUUCAAGGCCAUUUGAUGAUUCCAUUUGAUUCCAUUCGAUGGUGAUUCCAUCCAAUGCCAUUGAUGAUUCAUUCGAUUUCAUUCAAUGAUGAUUUCAUUCUAUUCCAUUCGAUGAUUCUAUUUGAUUCCAUUUGA [HSATIII RAP]”, in data set [1], the binding result is “binds”.
Turning to “GAUUCCAUUCGAUGAUGAUUGCAUUCGAAUCCAUGGAUUAUUCCAUUCCAUUCCAUUAGAUGAUUCCAUUCGAGUCCAUUCGAUGAUUCUCUUCGAUUCCAUUCGAUAAUUCCGUUUG [HSATII RAP]”, the binding result in data set [1] is “binds”.
The same measure, in the same setting: under “CUUGUCUAGGCUCUGCCUACAGGGGGCUUGUGACAUAUCUCUGCACUGAUCACCCAGGUGAUAUAACUCUUCUCUAGGAUCUGCCUACAG [Beta Sat RAP]” stands “binds”.
On the same count and under the same terms, under “UCAUGUAAGGCUAGACAGAAGAAUUCUCAGUAACUUCCUUGUGUUGUGUGUAUUCAACUCACAGAGUUGAACGUUCCUUU [Alpha Sat RAP]” stands “binds”.
As for “GGGCUGGUGAGAUGGCUCAGUGGGUAAGAGCACCCGACUGCUCUUCCGAAGGUCAGGAGUUCAAAUCCCAGCAACCACAUGGUGGCUCACAACCAUCCGUAACGAGAUCUGAUUCCCUCUUCUGGAGUGUCUGAAGACAGCUACAGUGUACUUACAUAUAAUAAAUAAAUAAAUCUUU [B2 RNA]”, in data set [2], the binding result is “binds”.

(Values after publication PMC7714431.)
